Measurements from EP0056458B1, “Nitrosourea derivatives, a process for preparing same and therapeutic compositions” (Tanabe Seiyaku Co., Ltd., priority 1981, dated 1982).

test system: Ehrlich ascites carcinoma; assay: Preventive effect against the growth of Ehrlich ascites tumor (method A); format: in vivo, mice; settings: times greater than that of GANU
Procedure: (A) Preventive effect against the growth of Ehrlich ascites tumor:
10^6 tumor cells of Ehrlich ascites carcinoma were inoculated intraperitoneally into a group of five female mice (ICR mice, body weight: 19-23 g). A test compound was dissolved in a physiological saline solution. (In the case where CCNU was employed as the test compound, said compound was suspended in a physiological saline solution containing 0.1% NIKKOL HCO-60 (trademark; a surface active agent manufactured by Nikko Chemicals Co. Ltd.)) and administered intraperitoneally to the mice. The administration of the test compound was begun 24 hours after the inoculation of the tumor cells and performed once a day for 5 days. The volume of ascites in the treated mice were measured after 7 days of the experiment.

Structure (SMILES)	therapeutic indexes (M. T. D./M. E. D.) relative to GANU
CO[C@H]1O[C@H](CO)[C@@H](O)[C@H](N(CC(C)C)C(=O)N(CCCl)N=O)[C@H]1O [Compound 2, 1 - (2 - chloroethyl) - 1 - nitroso - 3 - isobutyl - 3 - (methyl 3 - deoxy - a - D - glucopyranosid - 3 - yl)urea]	4 times
C=CCN(C(=O)N(CCCl)N=O)[C@@H]1[C@@H](O)[C@@H](OC)O[C@H](CO)[C@H]1O [Compound 4, 1 - (2 - chloroethyl) -1 - nitroso - 3 - allyl - 3 - (methyl 3 - deoxy - α - D - glucopyranosid - 3 - yl)urea]	4 times
COCCN(C(=O)N(CCCl)N=O)[C@@H]1[C@@H](O)[C@@H](OC)O[C@H](CO)[C@H]1O [Compound 6, 1 - (2 - chloroethyl) - 1 - nitroso - 3 - (2 - methoxyethyl) - 3 - (methyl 3 - deoxy - a - D - glucopyranosid - 3 - yl)urea]	4 times
